This note sets out measurements from article PMC11586526.

Substitutions are numbered along the chain they refer to. Results are given in words; binding and its absence hold for the method and conditions named. Binding calls can cover weak binding; strength is not graded here. Where a sequence is shown, tags or fusion partners need not be part of it.

Experiment in all cases: two-hybrid; PJ69-4A diploids from MATa cells with activation domain-Myo2 (wild type or point mutants) and MATalpha cells with binding domain-Vac17 (wild type or point mutants); growth for 3-4 days on YM+Glu Leu-Trp-Ade-His- medium with 0, 3, 6 or 10 mM 3-aminotriazole
For experiment [1], the target named is T1, wild-type Vac17 (binding-domain fusion, yeast two-hybrid) (S. cerevisiae) (UniProt P25591).
T1 sequence: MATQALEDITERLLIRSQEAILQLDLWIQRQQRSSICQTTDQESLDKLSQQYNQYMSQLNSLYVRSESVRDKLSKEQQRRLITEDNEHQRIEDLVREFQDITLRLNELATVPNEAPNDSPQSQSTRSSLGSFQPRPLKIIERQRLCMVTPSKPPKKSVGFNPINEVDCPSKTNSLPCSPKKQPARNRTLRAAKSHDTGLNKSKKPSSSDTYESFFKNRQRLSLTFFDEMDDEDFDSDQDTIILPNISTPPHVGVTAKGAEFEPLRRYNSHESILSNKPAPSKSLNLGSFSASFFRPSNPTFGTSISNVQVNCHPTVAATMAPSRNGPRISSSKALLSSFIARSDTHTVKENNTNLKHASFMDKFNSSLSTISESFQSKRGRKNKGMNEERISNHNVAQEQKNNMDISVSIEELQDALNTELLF

The target of experiment [2] is T2, vac17-R142E (binding-domain fusion, yeast two-hybrid) (S. cerevisiae) (UniProt P25591).
T2 sequence: T1 sequence with R142E

Experiment [3] deals with T3, vac17-R135E,R142E (binding-domain fusion, yeast two-hybrid) (S. cerevisiae) (UniProt P25591).
T3 sequence: T1 sequence with R135E, R142E

With “myo2-D1296N cargo-binding domain (activation-domain fusion, yeast two-hybrid) (S. cerevisiae) (domain or fragment)”, the binding result in experiment [1] is listed as “binds”.
In the case of “myo2-D1297N cargo-binding domain (activation-domain fusion, yeast two-hybrid) (S. cerevisiae) (domain or fragment)”, the binding result in experiment [2] and in experiment [3] was “no binding” each time.
As for “myo2-E1293K cargo-binding domain (activation-domain fusion, yeast two-hybrid) (S. cerevisiae) (domain or fragment)”, the binding result in experiment [2] and in experiment [3] was “binds” in each case.
As for “myo2-N1304D cargo-binding domain (activation-domain fusion, yeast two-hybrid) (S. cerevisiae) (domain or fragment)”, the binding entry in experiment [2] and in experiment [3] was “no binding” throughout.
